This passage reports binding results from publication PMC3459738.

The chains behind the UniProt entries cited, without tags or fusion partners.
UniProt Q07955: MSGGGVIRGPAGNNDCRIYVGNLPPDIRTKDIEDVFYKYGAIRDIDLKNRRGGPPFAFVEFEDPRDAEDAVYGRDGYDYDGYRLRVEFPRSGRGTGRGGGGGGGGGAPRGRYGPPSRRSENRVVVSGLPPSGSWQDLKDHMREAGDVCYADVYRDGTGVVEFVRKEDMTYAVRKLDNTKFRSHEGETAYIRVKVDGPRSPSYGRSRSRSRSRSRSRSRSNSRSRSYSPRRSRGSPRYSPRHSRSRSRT
UniProt Q99873: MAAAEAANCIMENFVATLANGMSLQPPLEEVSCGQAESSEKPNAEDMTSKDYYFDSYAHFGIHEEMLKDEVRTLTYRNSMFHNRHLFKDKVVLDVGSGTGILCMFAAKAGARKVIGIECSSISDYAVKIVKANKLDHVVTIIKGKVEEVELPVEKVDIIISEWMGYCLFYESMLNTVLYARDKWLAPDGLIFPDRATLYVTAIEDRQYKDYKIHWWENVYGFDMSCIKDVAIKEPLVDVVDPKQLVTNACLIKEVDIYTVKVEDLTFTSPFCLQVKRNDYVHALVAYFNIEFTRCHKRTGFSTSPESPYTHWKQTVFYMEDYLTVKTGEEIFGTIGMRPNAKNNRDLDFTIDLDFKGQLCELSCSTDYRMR

Experiment [1] addresses Serine/arginine-rich splicing factor 1 (human (endogenous in Nalm-6)) (UniProt Q07955). The experiment can be described thus: co-IP; endogenous proteins in Nalm-6 whole cell lysate (RIPA buffer, 1.0 % NP40, 100 mM NaCl); 1.0 ug anti-SRSF1 or anti-PRMT1 antibody with 1.0 mg lysate overnight at 4 °C, Protein G-Plus beads; washes with 150 mM NaCl, 1.0 % NP40; western blot; IgG as negative control; reciprocal. In general terms: Immunoblotting shows a protein as a band on a membrane.

The target of experiment [2] is protein arginine methyltransferase 1 (human (endogenous in Nalm-6)) (UniProt Q99873). Described as above.

No constants are given. Whether binding was seen depends on the method and setting. Binding seen in cells or lysates may run through a third protein. Some binding calls cover weakened binding; strength is not graded here.

As to “protein arginine methyltransferase 1 (from UniProt Q99873 1-371) (enzyme)”, the binding entry in experiment [1] was “binds”.

“Serine/arginine-rich splicing factor 1 (from UniProt Q07955 1-248)”: in experiment [2], the binding entry was “binds”.
